Source: the supplement of paper PMC7646827
Single values are uncertain, as repeats are few or missing.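 All cells are established human bladder cancer lines, one of them grown from a patient-derived xenograft. Viability was read by a luminescent ATP assay as percent inhibition versus vehicle over a seven-point dilution series; the paper calls scores above 59 very active, 30–59 active, 21–29 semi-active, 9–20 low active and below 9 inactive.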

Experiments:
Assay in all cases: drug sensitivity score DSS3 (score 0-100); higher = more sensitive; extreme values may be limits of the assay
Details in all cases: culture: 3D, ultra-low attachment; treatment time: 5 days
SCaBER = tested on: SCaBER
UM-UC-1 = tested on: UM-UC-1
UM-UC-18 = tested on: UM-UC-18
UM-UC-5 = tested on: UM-UC-5
UM-UC-6 = tested on: UM-UC-6
UM-UC-17 = tested on: UM-UC-17
SW780 = tested on: SW780
5637 = tested on: 5637
BC8149 = tested on: BC8149
T-24 = tested on: T-24
UM-UC-14 = tested on: UM-UC-14
TCCSUP = tested on: TCCSUP
J82 = tested on: J82
UM-UC-9 = tested on: UM-UC-9
UM-UC-3 = tested on: UM-UC-3
UM-UC-15 = tested on: UM-UC-15
UM-UC-12 = tested on: UM-UC-12

Structure (SMILES)	drug sensitivity score DSS3 (SCaBER)	drug sensitivity score DSS3 (UM-UC-1)	drug sensitivity score DSS3 (UM-UC-18)	drug sensitivity score DSS3 (UM-UC-5)	drug sensitivity score DSS3 (UM-UC-6)	drug sensitivity score DSS3 (UM-UC-17)	drug sensitivity score DSS3 (SW780)	drug sensitivity score DSS3 5637	drug sensitivity score DSS3 (BC8149)	drug sensitivity score DSS3 (T-24)	drug sensitivity score DSS3 (UM-UC-14)	drug sensitivity score DSS3 (TCCSUP)	drug sensitivity score DSS3 (J82)	drug sensitivity score DSS3 (UM-UC-9)	drug sensitivity score DSS3 (UM-UC-3)	drug sensitivity score DSS3 (UM-UC-15)	drug sensitivity score DSS3 (UM-UC-12)
CC(=O)Nc1cccc(-n2c(=O)n(C3CC3)c(=O)c3c(Nc4ccc(I)cc4F)n(C)c(=O)c(C)c32)c1 (max dose 10000 nM)	55.5	27.1	0.722	68.8	14.2	0.334	0.654	37.3	10.4	21.3	19.3	28.6	7.26	2.12	29.5	21.7	–
CO[C@H]1C[C@@H]2CC[C@@H](C)[C@@](O)(O2)C(=O)C(=O)N2CCCC[C@H]2C(=O)O[C@H]([C@H](C)C[C@@H]2CC[C@@H](OC(=O)C(C)(CO)CO)[C@H](OC)C2)CC(=O)[C@H](C)/C=C(\C)[C@@H](O)[C@@H](OC)C(=O)[C@H](C)C[C@H](C)/C=C/C=C/C=C/1C (max dose 10000 nM)	21.6	25	23.9	26.5	12.4	1.72	–	35.7	27.1	0	21.2	42.5	–	–	25.1	0	16.8
Cc1cnc(Nc2ccc(OCCN3CCCC3)cc2)nc1Nc1cccc(S(=O)(=O)NC(C)(C)C)c1 (max dose 10000 nM)	0.979	–	0.0756	0	0	0	0	2.03	1.21	0	0	3.44	0	0	0.743	0	0
CC(C)[C@@H](CS(=O)(=O)C(C)C)N1C(=O)[C@@](C)(CC(=O)O)C[C@H](c2cccc(Cl)c2)[C@H]1c1ccc(Cl)cc1 [AMG232] (max dose 10000 nM)	5.55	6.39	0	0	0	7.63	18	12.4	12	0	4.3	6.76	–	0	10.1	0	13.6
C[C@@H]1Cc2c([nH]c3ccccc23)[C@@H](c2c(F)cc(/C=C/C(=O)O)cc2F)N1CC(C)(C)F [AZD9496] (max dose 10000 nM)	0	–	–	0	0	0	14.9	0	0	2.54	–	6.18	0	0	0	0	0
CN(C)C(=O)Nc1cccc(-c2ccc(N(C)C)cc2)c1 [Atglistatin] (max dose 10000 nM)	0	–	0	0	0	0.138	0.225	0	0.049	0	0.673	1	0	0	0.311	1.34	0
CC[C@@H]1C(=O)N(C)c2cnc(Nc3ccc(C(=O)NC4CCN(C)CC4)cc3OC)nc2N1C1CCCC1 [BI 2536] (max dose 10000 nM)	0	0	0	0	0	51.6	12.4	49.8	23.8	0	17.5	58.1	0	–	26	0	–
CS(=O)(=O)N1CCN(Cc2cc3nc(-c4cccc5[nH]ncc45)nc(N4CCOCC4)c3s2)CC1 [GDC-0941] (max dose 10000 nM)	37.7	39.5	53.9	27.4	33.6	34.4	10.6	60.3	34.9	17.2	35.4	61	–	2.27	32.9	0	37.2
CC(=O)N1CCN(c2ccc(NC(=O)Cc3cnc(-c4ccnc(F)c4)c(C)c3)nc2)CC1 [GNF-6231] (max dose 10000 nM)	0	0	0	0	0	0	0	0	0.307	0	0	0	0	0	0	0	–
CC(C)(C)C(=O)N1N=CC[C@H]1c1ccccc1 [GSK'963] (max dose 10000 nM)	0	0	0.446	0	0	0	0	0.424	0	0	0.265	1.8	0	0	0	0	–
C[C@]1(O)C[C@@H](c2nc(-c3ccc4ccc(-c5ccccc5)nc4c3)c3c(N)nccn32)C1 [OSI-906 (Linsitinib)] (max dose 10000 nM)	0.58	0	0	0	0	0	0	1.76	0	6.19	0.603	2.44	0	0	5.02	0	–
Cc1cc(CS(=O)(=O)c2ccccc2)cc(OCc2ccc(CN3CCC[C@@H]3CO)cc2)c1 [PF-543] (max dose 10000 nM)	0	–	0	0	–	0	0	0	0	0	0	0.196	0	0.412	0	2.36	0
CCOc1cc2ncc(C#N)c(Nc3ccc(F)c(Cl)c3)c2cc1NC(=O)/C=C/CN(C)C [Pelitinib (EKB-569)] (max dose 10000 nM)	46.2	2.38	26.4	14.8	26.3	3.29	1.9	50.2	19.2	38.6	12.5	25.1	–	19.1	24.6	18.5	45.6
Cc1ccc(-n2nc(C(C)(C)C)cc2NC(=O)NCc2cc(F)ccc2Oc2ccc3c(cnn3CCO)c2)cc1 [Pexmetinib (ARRY-614)] (max dose 10000 nM)	0	3.64	0	0	5.1	0.604	0	0	0	0	2.27	9.96	0	0	1.03	1.63	–
COc1cc([C@@H]2c3cc4c(cc3[C@H](O)[C@H]3COC(=O)[C@@H]23)OCO4)cc(OC)c1OC [Picropodophyllin (PPP)] (max dose 10000 nM)	15.1	13.7	0	0	21.5	16.3	3.34	28	18.9	3.68	10.1	21.4	0.0776	5.58	10	0	–
C[C@@H](OC[C@@]1(c2ccccc2)CC[C@]2(CCC(=O)N2)CN1)c1cc(C(F)(F)F)cc(C(F)(F)F)c1 [Rolapitant] (max dose 10000 nM)	9.58	–	10.2	0.648	–	16.1	0	17.5	6.02	0	0	26.8	0.422	0	0	3.27	0
CC(C)N(CCCNC(=O)Nc1ccc(C(C)(C)C)cc1)C[C@H]1O[C@@H](n2cc(Br)c3c(N)ncnc32)[C@H](O)[C@@H]1O [SGC 0946] (max dose 10000 nM)	0	0	0	0	0	0	0	0	0.137	0	0	0	0	0	0	0	–
COc1ccc(NS(=O)(=O)c2ccc(N)cc2)nn1 [Sulfamethoxypyridazine] (max dose 10000 nM)	0	0	0	0	–	0	–	1.82	0	0	0	1.23	0	0	0	0	0
CCCCCCCCCCCCCC(=S)NCCCC[C@H](NC(=O)OCc1ccccc1)C(=O)Nc1ccccc1 [Thiomyristoyl] (max dose 10000 nM)	7.93	0	0	0	0	0	0	0	0	14.9	0	0	–	–	0	0	25.3
O=C1NC(=O)[C@@H](c2cn3c4c(cccc24)CCC3)[C@@H]1c1c[nH]c2ccccc12 [Tivantinib (ARQ 197)] (max dose 10000 nM)	24.3	39.9	13.3	–	36.5	34.2	22.7	49.5	24.6	13.4	19.4	44	–	–	26.3	34.1	10.2
Clc1ccc(Nc2nnc(Cc3ccncc3)c3ccccc23)cc1 [Vatalanib (PTK787) 2HCl] (max dose 10000 nM)	0	0	0	0	–	0	0	0	4.47	6.44	0.547	–	9	0.795	8.28	0	0
CC[C@@H]1C(=O)N(C)c2cnc(Nc3ccc(C(=O)N[C@H]4CC[C@H](N5CCN(CC6CC6)CC5)CC4)cc3OC)nc2N1C(C)C [Volasertib (BI 6727)] (max dose 10000 nM)	32.8	–	20	17.3	37.4	48.7	23.1	42.3	34.1	0.734	15.6	54.8	–	–	30.1	0	34.6
NC(=O)NO [hydroxyurea] (max dose 10000 nM)	0.00478	0	0	0	0	0	0.18	0.404	1.47	0	0	2.02	1.15	0	0.0128	0	–
Cc1c(C(=O)Nc2ccc(N3C[C@@H](C)O[C@@H](C)C3)nc2)cccc1-c1ccc(OC(F)(F)F)cc1 [sonidegib] (max dose 10000 nM)	0	0	4.98	0	0	0	0	3.21	1.38	1.6	1.67	2.72	–	0	0	0.297	–

Single values from the results shown.
In drug sensitivity score DSS3 (SW780), Cc1c(C(=O)Nc2ccc(N3C[C@@H](C)O[C@@H](C)C3)nc2)cccc1-c1ccc(OC(F)(F)F)cc1 [sonidegib] (max dose 10000 nM) has 0
In drug sensitivity score DSS3 (J82), C[C@]1(O)C[C@@H](c2nc(-c3ccc4ccc(-c5ccccc5)nc4c3)c3c(N)nccn32)C1 [OSI-906 (Linsitinib)] (max dose 10000 nM) has 0
